The entries are a selection whose mix differs from that of the whole data set.
These targets were tested with COC(=O)C#Cc1ccccc1 [methyl 3-phenylpropiolate] (assay: log2 ratio of iodoacetamide-alkyne labeling of the cysteine site, DMSO over compound (competition); higher = stronger covalent engagement of the cysteine by the compound, active = 1 or more). Conditions: 500 µM; treatment time 1 h; system: HEK293T cell lysate.
Summary of the method: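 Electrophile (500 µM) or vehicle was added to HEK293T lysate (2 mg/mL) for 1 h at ambient temperature before iodoacetamide alkyne labelling (1 h) and click coupling to sCIP-TMT reagents. After pooling, overnight trypsin digestion at 37 °C, streptavidin enrichment and acid elution, peptides were measured by Orbitrap Eclipse LC-MS/MS with FAIMS and quantified in FragPipe. Each cysteine's log2 competition ratio compares mean control-channel with mean compound-channel reporter intensity, control over compound. Data came from duplicate channels across three replicates, excluding cysteines quantified in only one replicate.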

The chains behind the UniProt entries cited, without tags or fusion partners. Where a name states a change or a piece, a line headed by the entry shows the natural chain unless it says otherwise.
UniProt O95140: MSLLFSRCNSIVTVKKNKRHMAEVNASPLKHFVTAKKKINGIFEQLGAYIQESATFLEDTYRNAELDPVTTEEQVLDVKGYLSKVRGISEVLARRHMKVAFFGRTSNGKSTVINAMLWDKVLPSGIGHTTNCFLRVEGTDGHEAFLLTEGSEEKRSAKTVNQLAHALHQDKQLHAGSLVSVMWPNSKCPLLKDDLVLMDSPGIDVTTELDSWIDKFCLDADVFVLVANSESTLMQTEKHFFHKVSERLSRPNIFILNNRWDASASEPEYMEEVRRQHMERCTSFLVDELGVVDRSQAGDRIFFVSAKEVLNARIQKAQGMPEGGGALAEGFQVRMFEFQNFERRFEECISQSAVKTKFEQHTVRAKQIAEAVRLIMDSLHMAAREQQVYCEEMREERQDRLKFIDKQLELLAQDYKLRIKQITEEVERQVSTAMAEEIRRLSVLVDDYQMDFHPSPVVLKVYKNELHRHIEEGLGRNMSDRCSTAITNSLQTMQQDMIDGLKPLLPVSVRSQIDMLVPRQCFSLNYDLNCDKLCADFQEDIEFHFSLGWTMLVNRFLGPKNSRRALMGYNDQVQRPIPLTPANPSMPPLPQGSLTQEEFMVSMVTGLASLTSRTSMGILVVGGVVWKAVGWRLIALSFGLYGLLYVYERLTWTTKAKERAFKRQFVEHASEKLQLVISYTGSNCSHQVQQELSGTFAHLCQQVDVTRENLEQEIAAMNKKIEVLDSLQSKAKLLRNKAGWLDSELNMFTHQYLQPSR
UniProt O95197: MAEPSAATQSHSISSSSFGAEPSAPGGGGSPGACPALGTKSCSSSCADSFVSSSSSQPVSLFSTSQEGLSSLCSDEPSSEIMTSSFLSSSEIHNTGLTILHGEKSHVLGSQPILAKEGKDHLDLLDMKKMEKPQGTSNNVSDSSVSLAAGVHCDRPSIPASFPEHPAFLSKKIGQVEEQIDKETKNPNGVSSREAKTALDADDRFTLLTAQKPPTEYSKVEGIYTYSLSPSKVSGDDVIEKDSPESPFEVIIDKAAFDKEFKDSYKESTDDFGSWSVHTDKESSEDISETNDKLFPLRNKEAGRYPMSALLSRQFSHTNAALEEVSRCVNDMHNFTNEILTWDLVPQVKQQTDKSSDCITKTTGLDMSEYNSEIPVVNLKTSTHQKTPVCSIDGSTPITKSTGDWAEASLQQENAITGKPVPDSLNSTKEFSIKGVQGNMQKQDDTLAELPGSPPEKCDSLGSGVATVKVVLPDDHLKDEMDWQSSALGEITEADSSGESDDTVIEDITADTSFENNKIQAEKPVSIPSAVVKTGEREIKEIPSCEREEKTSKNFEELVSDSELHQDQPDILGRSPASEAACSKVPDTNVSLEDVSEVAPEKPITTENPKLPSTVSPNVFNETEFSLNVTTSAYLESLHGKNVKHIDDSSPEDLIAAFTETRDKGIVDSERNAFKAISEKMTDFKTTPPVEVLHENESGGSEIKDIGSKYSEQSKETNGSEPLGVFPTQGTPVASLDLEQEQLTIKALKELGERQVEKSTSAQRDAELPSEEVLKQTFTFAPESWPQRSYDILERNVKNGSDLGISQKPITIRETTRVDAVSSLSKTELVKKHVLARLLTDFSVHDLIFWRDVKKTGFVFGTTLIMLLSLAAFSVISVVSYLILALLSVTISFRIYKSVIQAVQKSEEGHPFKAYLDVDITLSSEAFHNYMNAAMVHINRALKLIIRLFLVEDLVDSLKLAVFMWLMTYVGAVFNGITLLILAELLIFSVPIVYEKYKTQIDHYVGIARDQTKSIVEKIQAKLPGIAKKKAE
UniProt P07099: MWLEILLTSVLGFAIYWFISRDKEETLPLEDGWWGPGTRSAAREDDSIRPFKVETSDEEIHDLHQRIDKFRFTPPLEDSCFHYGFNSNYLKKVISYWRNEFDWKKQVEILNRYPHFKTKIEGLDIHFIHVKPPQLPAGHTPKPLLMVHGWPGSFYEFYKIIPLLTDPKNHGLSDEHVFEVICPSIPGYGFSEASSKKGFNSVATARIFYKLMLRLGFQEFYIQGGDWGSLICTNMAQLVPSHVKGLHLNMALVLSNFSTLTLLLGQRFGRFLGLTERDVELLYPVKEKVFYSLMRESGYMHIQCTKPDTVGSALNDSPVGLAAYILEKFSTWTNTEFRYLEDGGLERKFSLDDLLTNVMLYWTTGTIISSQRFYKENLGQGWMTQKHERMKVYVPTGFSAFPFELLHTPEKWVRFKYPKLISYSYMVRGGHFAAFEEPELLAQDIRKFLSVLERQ
UniProt O95232: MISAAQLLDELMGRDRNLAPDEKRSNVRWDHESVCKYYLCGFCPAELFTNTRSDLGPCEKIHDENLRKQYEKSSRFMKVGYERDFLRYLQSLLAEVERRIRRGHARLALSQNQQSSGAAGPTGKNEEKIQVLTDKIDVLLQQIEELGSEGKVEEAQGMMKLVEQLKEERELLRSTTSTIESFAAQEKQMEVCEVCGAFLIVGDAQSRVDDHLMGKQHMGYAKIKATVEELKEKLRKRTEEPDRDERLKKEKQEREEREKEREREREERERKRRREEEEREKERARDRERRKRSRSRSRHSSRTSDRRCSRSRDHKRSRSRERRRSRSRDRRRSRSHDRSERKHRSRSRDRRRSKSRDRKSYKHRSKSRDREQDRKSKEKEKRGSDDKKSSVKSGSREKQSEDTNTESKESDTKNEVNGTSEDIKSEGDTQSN
UniProt P04181: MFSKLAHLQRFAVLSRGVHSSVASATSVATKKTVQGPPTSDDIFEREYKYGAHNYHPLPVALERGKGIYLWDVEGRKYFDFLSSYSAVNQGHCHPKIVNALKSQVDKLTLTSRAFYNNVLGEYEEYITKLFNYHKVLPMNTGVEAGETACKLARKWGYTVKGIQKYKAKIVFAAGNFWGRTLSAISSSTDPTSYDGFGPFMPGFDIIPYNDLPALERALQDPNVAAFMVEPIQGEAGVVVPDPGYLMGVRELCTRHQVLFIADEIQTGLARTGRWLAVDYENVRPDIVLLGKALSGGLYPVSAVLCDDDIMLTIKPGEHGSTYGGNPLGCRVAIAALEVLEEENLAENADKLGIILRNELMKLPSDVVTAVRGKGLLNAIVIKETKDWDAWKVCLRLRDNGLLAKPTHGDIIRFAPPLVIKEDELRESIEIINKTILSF
UniProt O95382: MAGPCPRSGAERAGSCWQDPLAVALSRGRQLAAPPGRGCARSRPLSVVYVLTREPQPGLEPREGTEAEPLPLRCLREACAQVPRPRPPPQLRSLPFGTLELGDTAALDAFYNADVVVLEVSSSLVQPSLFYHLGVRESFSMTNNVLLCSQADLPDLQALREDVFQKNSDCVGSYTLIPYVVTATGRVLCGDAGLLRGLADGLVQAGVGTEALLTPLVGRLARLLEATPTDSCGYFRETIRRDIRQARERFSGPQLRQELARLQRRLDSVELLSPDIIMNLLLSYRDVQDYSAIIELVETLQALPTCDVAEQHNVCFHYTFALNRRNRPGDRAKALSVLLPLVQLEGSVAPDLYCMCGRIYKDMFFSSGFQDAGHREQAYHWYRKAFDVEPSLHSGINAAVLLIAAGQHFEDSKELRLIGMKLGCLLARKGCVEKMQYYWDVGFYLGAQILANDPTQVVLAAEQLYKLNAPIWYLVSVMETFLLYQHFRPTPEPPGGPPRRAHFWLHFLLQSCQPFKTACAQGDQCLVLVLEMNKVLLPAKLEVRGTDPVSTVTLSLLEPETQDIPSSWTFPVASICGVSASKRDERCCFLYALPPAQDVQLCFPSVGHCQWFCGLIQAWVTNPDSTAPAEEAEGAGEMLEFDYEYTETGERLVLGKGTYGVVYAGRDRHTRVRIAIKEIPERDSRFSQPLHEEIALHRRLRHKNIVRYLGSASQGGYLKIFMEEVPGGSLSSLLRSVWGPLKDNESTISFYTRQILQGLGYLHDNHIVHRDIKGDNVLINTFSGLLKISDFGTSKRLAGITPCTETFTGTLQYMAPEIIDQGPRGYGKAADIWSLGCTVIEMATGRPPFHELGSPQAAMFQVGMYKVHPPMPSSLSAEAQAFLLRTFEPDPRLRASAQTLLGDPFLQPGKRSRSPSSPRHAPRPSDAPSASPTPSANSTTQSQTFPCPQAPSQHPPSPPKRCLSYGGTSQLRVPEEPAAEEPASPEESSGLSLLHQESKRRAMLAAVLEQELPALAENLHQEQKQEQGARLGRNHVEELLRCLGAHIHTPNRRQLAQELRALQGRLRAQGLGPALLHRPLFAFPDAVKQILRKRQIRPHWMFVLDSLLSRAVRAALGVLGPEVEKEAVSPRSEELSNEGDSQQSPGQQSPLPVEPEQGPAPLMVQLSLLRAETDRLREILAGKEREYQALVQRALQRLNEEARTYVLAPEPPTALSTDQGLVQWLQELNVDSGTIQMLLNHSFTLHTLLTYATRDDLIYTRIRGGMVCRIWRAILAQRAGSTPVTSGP
UniProt O95602, whole entry, looked up: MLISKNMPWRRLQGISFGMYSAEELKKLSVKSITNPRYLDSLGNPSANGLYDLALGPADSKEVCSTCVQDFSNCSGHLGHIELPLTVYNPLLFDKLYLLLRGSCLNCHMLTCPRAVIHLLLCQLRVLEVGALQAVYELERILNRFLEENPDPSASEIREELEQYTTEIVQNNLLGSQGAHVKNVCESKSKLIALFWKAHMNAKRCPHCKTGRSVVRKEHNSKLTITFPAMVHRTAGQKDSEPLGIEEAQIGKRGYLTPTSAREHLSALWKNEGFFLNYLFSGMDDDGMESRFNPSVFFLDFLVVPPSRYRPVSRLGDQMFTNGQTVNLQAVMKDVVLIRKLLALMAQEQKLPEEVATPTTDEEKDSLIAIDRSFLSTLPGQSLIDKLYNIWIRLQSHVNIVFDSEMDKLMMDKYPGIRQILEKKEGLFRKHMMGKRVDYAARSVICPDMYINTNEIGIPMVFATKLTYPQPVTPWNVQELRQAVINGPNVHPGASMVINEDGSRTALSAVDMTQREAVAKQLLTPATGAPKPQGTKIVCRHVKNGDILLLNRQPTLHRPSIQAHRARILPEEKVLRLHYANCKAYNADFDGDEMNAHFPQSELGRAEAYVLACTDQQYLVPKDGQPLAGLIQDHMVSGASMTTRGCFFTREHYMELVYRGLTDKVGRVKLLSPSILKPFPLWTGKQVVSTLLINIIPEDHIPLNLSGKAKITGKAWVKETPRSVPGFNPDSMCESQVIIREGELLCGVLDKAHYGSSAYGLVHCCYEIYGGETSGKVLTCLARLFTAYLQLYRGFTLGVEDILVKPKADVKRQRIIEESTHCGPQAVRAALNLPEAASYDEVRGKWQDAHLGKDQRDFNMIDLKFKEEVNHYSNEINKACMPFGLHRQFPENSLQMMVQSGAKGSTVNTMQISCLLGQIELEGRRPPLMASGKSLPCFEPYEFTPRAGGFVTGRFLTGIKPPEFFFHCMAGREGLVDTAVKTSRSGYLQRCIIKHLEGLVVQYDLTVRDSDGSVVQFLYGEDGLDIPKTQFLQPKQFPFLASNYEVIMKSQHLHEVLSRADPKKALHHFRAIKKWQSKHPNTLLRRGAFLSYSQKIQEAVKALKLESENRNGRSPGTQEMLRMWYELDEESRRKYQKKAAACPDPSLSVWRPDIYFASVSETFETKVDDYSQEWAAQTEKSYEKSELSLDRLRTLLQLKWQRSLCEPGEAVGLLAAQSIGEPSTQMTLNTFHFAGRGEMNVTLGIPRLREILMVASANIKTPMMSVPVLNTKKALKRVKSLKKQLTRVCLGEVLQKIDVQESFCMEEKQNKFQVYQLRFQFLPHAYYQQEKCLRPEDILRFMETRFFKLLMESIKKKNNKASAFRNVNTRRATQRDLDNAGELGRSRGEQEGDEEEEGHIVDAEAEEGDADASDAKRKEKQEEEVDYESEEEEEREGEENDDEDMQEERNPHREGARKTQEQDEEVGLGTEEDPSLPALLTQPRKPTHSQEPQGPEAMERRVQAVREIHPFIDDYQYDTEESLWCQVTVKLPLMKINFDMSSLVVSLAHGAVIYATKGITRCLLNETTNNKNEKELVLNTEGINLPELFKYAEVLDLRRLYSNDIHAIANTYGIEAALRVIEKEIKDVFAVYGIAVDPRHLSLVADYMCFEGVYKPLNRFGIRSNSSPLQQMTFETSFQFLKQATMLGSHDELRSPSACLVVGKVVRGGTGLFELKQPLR
UniProt P05386, whole entry, looked up: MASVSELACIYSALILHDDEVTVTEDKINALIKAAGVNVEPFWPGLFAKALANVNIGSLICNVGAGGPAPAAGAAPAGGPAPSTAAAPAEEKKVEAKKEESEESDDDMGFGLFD
UniProt P07355, whole entry, looked up: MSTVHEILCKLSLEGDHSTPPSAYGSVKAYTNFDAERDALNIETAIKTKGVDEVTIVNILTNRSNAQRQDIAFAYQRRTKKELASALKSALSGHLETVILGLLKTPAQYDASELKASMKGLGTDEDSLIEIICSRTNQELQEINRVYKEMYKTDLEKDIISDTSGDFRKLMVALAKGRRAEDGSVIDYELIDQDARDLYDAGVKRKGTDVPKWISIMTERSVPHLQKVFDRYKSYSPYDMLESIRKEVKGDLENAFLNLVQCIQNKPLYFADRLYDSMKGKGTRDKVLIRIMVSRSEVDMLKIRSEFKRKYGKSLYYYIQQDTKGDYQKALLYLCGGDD

Row | Target | log2 ratio of iodoacetamide-alkyne labeling
1 | MFN2 C348 (UniProt O95140) | inactive: -0.0549
2 | GAPDH C152 (UniProt P04406) | inactive: 0.177
3 | SEC31A C173 (UniProt O94979) | inactive: 0.494
4 | UniProt O94927_C35 | inactive: -0.301
5 | RTN3 C34 (UniProt O95197) | active: 1.43
6 | MYC C70 (UniProt P01106) | inactive: 0.857
7 | ALDOA C339 (UniProt P04075) | inactive: -0.0262
8 | EPRS C1377 (UniProt P07814) | inactive: 0.157
9 | TYMS C195 (UniProt P04818) | inactive: -0.104
10 | UniProt P06493_C119 | inactive: 0.0033
11 | CSTB C3 (UniProt P04080) | inactive: 0.661
12 | IPO7 C757 (UniProt O95373) | inactive: 0.0484
13 | CA2 C205 (UniProt P00918) | inactive: -0.11
14 | LDHA C293 (UniProt P00338) | inactive: -0.149
15 | GLS C525 (UniProt O94925) | inactive: 0.324
16 | EPHX1 C80 (UniProt P07099) | inactive: 0.109
17 | EPRS C1453 (UniProt P07814) | inactive: -0.00903
18 | UniProt O95232_C58 | inactive: 0.0546
19 | OAT C306 (UniProt P04181) | inactive: 0.00204

Row | Target | log2 ratio of iodoacetamide-alkyne labeling
20 | YEATS4 C210 (UniProt O95619) | inactive: 0.231
21 | GLS C518 (UniProt O94925) | inactive: 0.321
22 | PAPSS2 C155 (UniProt O95340) | inactive: -0.0435
23 | NR3C1 C367 (UniProt P04150) | inactive: 0.737
24 | UniProt O95382_C16 | inactive: 0.407
25 | LDHA C131 (UniProt P00338) | inactive: 0.589
26 | GOT2 C106 (UniProt P00505) | inactive: 0.421
27 | UniProt O94822_C237 | inactive: 0.172
28 | OAT C253 (UniProt P04181) | inactive: 0.0787
29 | PGK1 C379 (UniProt P00558) | inactive: 0.0989
30 | GSR C107 (UniProt P00390) | inactive: 0.154
31 | UniProt O95071_C2314 | inactive: 0.482
32 | POLR1A C937 (UniProt O95602) | inactive: 0.116
33 | RPLP1 C61 (UniProt P05386) | inactive: 0.227
34 | BCL10 C122 (UniProt O95999) | inactive: 0.992
35 | PCNT C2628 (UniProt O95613) | inactive: 0.0344
36 | SOGA1 C267 (UniProt O94964) | inactive: -0.405
37 | ANXA2 C133 (UniProt P07355) | inactive: 0.123

No new results follow: entries from further up.
Row | Target | log2 ratio of iodoacetamide-alkyne labeling
27 | UniProt O94822_C237 | inactive: 0.172
28 | OAT C253 (UniProt P04181) | inactive: 0.0787
29 | PGK1 C379 (UniProt P00558) | inactive: 0.0989
30 | GSR C107 (UniProt P00390) | inactive: 0.154
31 | UniProt O95071_C2314 | inactive: 0.482
32 | POLR1A C937 (UniProt O95602) | inactive: 0.116
33 | RPLP1 C61 (UniProt P05386) | inactive: 0.227
34 | BCL10 C122 (UniProt O95999) | inactive: 0.992
35 | PCNT C2628 (UniProt O95613) | inactive: 0.0344

— the supplement of paper PMC11006884
